According to PubChem BioAssay AID222 (DTP/NCI, 2004):
The list shows only some results of the screen, not a fair sample: it is rich in T/C values a quarter to a half above the control, in often repeated tests (any T/C) and in doses without a T/C. Other doses and runs of a compound stand elsewhere. T/C is the treated group as % of the vehicle group. Some doses have a count of surviving animals in place of a T/C: the source holds a T/C of zero for them, seemingly a mark for toxic or unscored doses. Some survivor counts are full or nearly so, which does not show that the dose was tolerated: the source hardly ever lists a survival T/C far under the control, and the zero likely stands for such cases as well. Survivors were counted at the toxicity check, usually on the fifth day, unless a day is given; later deaths do not show. Schedule codes are those of the source, taken here to give the interval after Q, in days (D) or hours (H), and the number of doses after X. Some entries hold several experiments; the results are listed from low to high. Some schedule codes hold Z or #, which are not explained here. Where survival is the endpoint, this PubChem deposit counts one and a half times the control or more as active, and values a quarter to a half above the control carry no call in these data; other NCI protocols may use other cut-offs. Some T/C values are followed by the survivors on the day toxicity was checked, most often the fifth; where none is given, no animal had died by that day. Marks such as (2×) give the number of equal values in this list.

Tested on: C57BL/6 mice, intracerebral ependymoblastoma, median survival T/C
Experiment: NCI In Vivo Anticancer Drug Screen. Data for tumor model Ependymoblastoma (intracerebral) in C57BL/6 mice
Details: T/C endpoint: median survival time, higher T/C = longer survival
Protocol: The antitumor activity of compounds was measured in mice bearing transplantable tumors. Survival or tumor size were measured and the results are expressed as the measurement made in the treated group (T) divided by the measurement made in the vehicle treated control group (C). The tumor model used in this assay is Ependymoblastoma (intracerebral) in C57BL/6 mice

[1] = dose: 64.0 mg/kg/injection, schedule: Q01DX005 (ip), vehicle: Klucel (hydroxypropylcellulose) (HPC)
[2] = dose: 80.0 mg/kg/injection, schedule: Q01DX005 (ip), vehicle: saline
[3] = dose: 8.0 mg/kg/injection, schedule: Q01DX005 (ip), vehicle: saline
[4] = dose: 16.0 mg/kg/injection, schedule: Q01DX005 (ip), vehicle: saline
[5] = dose: 32.0 mg/kg/injection, schedule: Q01DX005 (ip), vehicle: saline with Tween-80
[6] = dose: 32.0 mg/kg/injection, schedule: Q01DX005 (ip), vehicle: saline
[7] = dose: 64.0 mg/kg/injection, schedule: Q01DX005 (ip), vehicle: saline with Tween-80
[8] = dose: 128.0 mg/kg/injection, schedule: Q01DX001 (ip), vehicle: saline
[9] = dose: 128.0 mg/kg/injection, schedule: Q01DX001 (oral), vehicle: saline
[10] = dose: 256.0 mg/kg/injection, schedule: Q01DX001 (ip), vehicle: saline
[11] = dose: 256.0 mg/kg/injection, schedule: Q01DX001 (oral), vehicle: saline
[12] = dose: 512.0 mg/kg/injection, schedule: Q01DX001 (oral), vehicle: saline

OC(CBr)C(O)C(O)C(O)CBr (configuration not stated)
survivor count (dose: 40.0 mg/kg/injection, schedule: Q01DX005 (ip), vehicle: saline): 8 of 8
T/C (dose: 100.0 mg/kg/injection, schedule: Q01DX005 (ip), vehicle: Klucel (hydroxypropylcellulose) (HPC), evaluated on day 60): 98, 110, 114, 119, 128, 146 % of control
T/C (dose: 100.0 mg/kg/injection, schedule: Q01DX005 (ip), vehicle: Klucel (hydroxypropylcellulose) (HPC), evaluated on day 90): 98 % of control [2 of 10 alive]
survivor count (dose: 100.0 mg/kg/injection, schedule: Q01DX005 (ip), vehicle: Klucel (hydroxypropylcellulose) (HPC)): 0 of 10 and 10 of 10
T/C (dose: 100.0 mg/kg/injection, schedule: Q01DX005 (ip), vehicle: saline): 137 % of control
T/C (dose: 128.0 mg/kg/injection, schedule: Q01DX005 (oral), vehicle: Klucel (hydroxypropylcellulose) (HPC)): 132 % of control
survivor count (dose: 194.0 mg/kg/injection, schedule: Q01DX005 (ip), vehicle: saline with Tween-80): 8 of 8
T/C (dose: 200.0 mg/kg/injection, schedule: Q01DX005 (ip), vehicle: Klucel (hydroxypropylcellulose) (HPC), evaluated on day 60): 89, 107, 118, 119 [9 of 10 alive], 121, 231 % of control
T/C (dose: 200.0 mg/kg/injection, schedule: Q01DX005 (ip), vehicle: Klucel (hydroxypropylcellulose) (HPC), evaluated on day 90): 109 % of control [6 of 10 alive]
survivor count (dose: 200.0 mg/kg/injection, schedule: Q01DX005 (ip), vehicle: Klucel (hydroxypropylcellulose) (HPC)): 0 of 10 and 7 of 10
survivor count (dose: 200.0 mg/kg/injection, schedule: Q01DX005 (ip), vehicle: saline): 10 of 10
T/C (dose: 256.0 mg/kg/injection, schedule: Q01DX005 (oral), vehicle: Klucel (hydroxypropylcellulose) (HPC)): 138 % of control
survivor count (dose: 324.0 mg/kg/injection, schedule: Q01DX005 (ip), vehicle: saline with Tween-80): 7 of 8
survivor count (dose: 400.0 mg/kg/injection, schedule: Q01DX005 (ip), vehicle: saline): 10 of 10
survivor count (dose: 512.0 mg/kg/injection, schedule: Q01DX005 (oral), vehicle: Klucel (hydroxypropylcellulose) (HPC)): 10 of 10
survivor count (dose: 540.0 mg/kg/injection, schedule: Q01DX005 (ip), vehicle: saline with Tween-80): 8 of 8
survivor count (dose: 900.0 mg/kg/injection, schedule: Q01DX005 (ip), vehicle: saline with Tween-80): 8 of 8
survivor count (dose: 1024.0 mg/kg/injection, schedule: Q01DX005 (oral), vehicle: Klucel (hydroxypropylcellulose) (HPC)): 10 of 10
survivor count (dose: 1350.0 mg/kg/injection, schedule: Q01DX005 (ip), vehicle: saline with Tween-80): 7 of 8
survivor count (dose: 2020.0 mg/kg/injection, schedule: Q01DX005 (ip), vehicle: saline with Tween-80): 6 of 8

Cc1c[nH]c(=O)[nH]c1=O
survivor count [1]: 10 of 10

c1ccc([C@H]2CN3CCSC3=N2)cc1
survivor count (dose: 40.0 mg/kg/injection, schedule: Q01DX009 (ip), vehicle: saline): 5 of 10
survivor count [2]: 0 of 10

N[C@H](C(=O)O)[C@@H]1CC(Cl)=NO1
T/C (dose: 2.0 mg/kg/injection, schedule: Q01DX005 (ip), vehicle: saline): 102, 103 [8 of 10 alive], 107, 108, 111, 112 % of control
T/C (dose: 4.0 mg/kg/injection, schedule: Q01DX005 (ip), vehicle: saline): 95 [9 of 10 alive], 103, 103 [8 of 10 alive], 105, 107, 112 % of control
T/C [3]: 112, 113, 115, 118 % of control
survivor count [3]: 10 of 10
survivor count (dose: 16.0 mg/kg/injection, schedule: Q01DX005 (ip), vehicle: saline with Tween-80): 9 of 10
T/C [4]: 88, 118, 120, 126 % of control
survivor count [4]: 10 of 10
T/C (dose: 32.0 mg/kg/injection, schedule: Q01DX001 (ip), vehicle: saline): 126 % of control [9 of 10 alive]
survivor count [5]: 10 of 10
T/C [6]: 121 % of control
survivor count [6]: 9 of 10 and 10 of 10
survivor count [7]: 10 of 10

Nc1nc([Se])c2ncn(C3OC(CO)C(O)C3O)c2n1 (configuration not stated)
T/C (dose: 8.0 mg/kg/injection, schedule: Q01DX005 (ip), vehicle: Klucel (hydroxypropylcellulose) (HPC)): 102, 105 (2×), 108, 109 % of control
survivor count (dose: 16.0 mg/kg/injection, schedule: Q01DX005 (ip), vehicle: Klucel (hydroxypropylcellulose) (HPC)): 10 of 10
survivor count (dose: 32.0 mg/kg/injection, schedule: Q01DX005 (ip), vehicle: Klucel (hydroxypropylcellulose) (HPC)): 9 of 10 and 10 of 10
survivor count [5]: 7 of 10
survivor count [6]: 10 of 10
T/C (dose: 64.0 mg/kg/injection, schedule: Q01DX001 (ip), vehicle: saline): 95 [9 of 10 alive], 100, 105 [6 of 7 alive], 106 [6 of 10 alive], 108 % of control
survivor count [1]: 9 of 10
survivor count [7]: 6 of 10
survivor count (dose: 64.0 mg/kg/injection, schedule: Q01DX005 (ip), vehicle: saline): 9 of 10 and 10 of 10
survivor count (dose: 111.4 mg/kg/injection, schedule: Q## X006 (ip), vehicle: saline): 7 of 10
T/C [8]: 94 [5 of 10 alive], 99 [8 of 10 alive], 104 % of control [5 of 10 alive]
survivor count [8]: 4 of 10
T/C [9]: 96, 98 [3 of 10 alive], 98 [6 of 10 alive], 106 % of control
survivor count [9]: 8 of 10
survivor count (dose: 128.0 mg/kg/injection, schedule: Q01DX005 (ip), vehicle: Klucel (hydroxypropylcellulose) (HPC)): 0 of 10
survivor count (dose: 128.0 mg/kg/injection, schedule: Q01DX005 (ip), vehicle: saline): 0 of 10
survivor count (dose: 128.0 mg/kg/injection, schedule: Q01DX005 (oral), vehicle: saline): 4 of 10
survivor count (dose: 128.0 mg/kg/injection, schedule: Q#A X002 (ip), vehicle: saline): 0 of 10
survivor count (dose: 222.7 mg/kg/injection, schedule: Q## X006 (ip), vehicle: saline): 3 of 10
T/C [10]: 95 % of control [3 of 10 alive]
survivor count [10]: 1 of 10, 2 of 10, 3 of 10
T/C [11]: 90 [2 of 10 alive] and 104 % of control [7 of 10 alive]
survivor count [11]: 3 of 10, 5 of 10, 7 of 10
survivor count (dose: 256.0 mg/kg/injection, schedule: Q01DX005 (oral), vehicle: saline): 0 of 10
survivor count (dose: 256.0 mg/kg/injection, schedule: Q#A X002 (ip), vehicle: saline): 0 of 10 and 0 of 9
survivor count (dose: 512.0 mg/kg/injection, schedule: Q01DX001 (ip), vehicle: saline): 0 of 10 and 1 of 10
T/C [12]: 106 % of control [6 of 9 alive]
survivor count [12]: 0 of 10, 1 of 10, 2 of 10
survivor count (dose: 512.0 mg/kg/injection, schedule: Q01DX005 (oral), vehicle: saline): 0 of 10
survivor count (dose: 1024.0 mg/kg/injection, schedule: Q01DX001 (oral), vehicle: saline): 0 of 10 and 3 of 9
survivor count (dose: 1024.0 mg/kg/injection, schedule: Q01DX005 (oral), vehicle: saline): 0 of 10

COc1ccc(C[C@H](N)C(=O)NC2C(CO)OC(n3cnc4c(N(C)C)ncnc43)C2O)cc1 (some centres not stated)
survivor count [2]: 10 of 10
survivor count (dose: 160.0 mg/kg/injection, schedule: Q01DX005 (ip), vehicle: saline): 4 of 10
survivor count (dose: 320.0 mg/kg/injection, schedule: Q01DX005 (ip), vehicle: saline): 0 of 10
survivor count (dose: 640.0 mg/kg/injection, schedule: Q01DX005 (ip), vehicle: saline): 0 of 10

NNC(=O)c1ccncc1
survivor count (dose: 230.0 mg/kg/injection, schedule: Q01DX005 (ip), vehicle: saline): 3 of 10
survivor count (dose: 460.0 mg/kg/injection, schedule: Q01DX005 (ip), vehicle: saline): 0 of 10
